“And” between values parts separate entries of the source, which are not always exact repeats. Identical values can stand only once. Inconclusive results and toxic doses are left out. The calls were made as follows: active = survival T/C of 150% or more; inactive = T/C below 125% in these data.
Tested on: BDF1 mice, L1210 leukemia sc, survival T/C
Test: NCI In Vivo Anticancer Drug Screen. Data for tumor model L1210 Leukemia (subcutaneous) in B6D2F1 (BDF1) mice
Settings: endpoint: median survival time, vehicle: water, higher = longer survival
Procedure: The antitumor activity of compounds was measured in mice bearing transplantable tumors. Survival or tumor size were measured and the results are expressed as the measurement made in the treated group (T) divided by the measurement made in the vehicle treated control group (C). The tumor model used in this assay is L1210 Leukemia (subcutaneous) in B6D2F1 (BDF1) mice

Measured: T/C

COc1cc2c(c(OC)c1OC)-c1ccc(OC)c(=O)cc1[C@@H](N)CC2
inactive: dose: 0.6 mg/kg/injection, schedule: Q01DX009 (ip) 101 % of control | dose: 0.6 mg/kg/injection, schedule: Q01DX009 (sc) 101 % of control | dose: 1.25 mg/kg/injection, schedule: Q01DX009 (ip) 106 % of control | dose: 1.25 mg/kg/injection, schedule: Q01DX009 (sc) 106 % of control and 121 % of control | dose: 2.5 mg/kg/injection, schedule: Q01DX009 (ip) 107 % of control | dose: 2.5 mg/kg/injection, schedule: Q01DX009 (sc) 104 % of control and 108 % of control | dose: 10.0 mg/kg/injection, schedule: Q01DX009 (sc) 101 % of control | dose: 20.0 mg/kg/injection, schedule: Q01DX009 (sc) 102 % of control | dose: 40.0 mg/kg/injection, schedule: Q01DX009 (sc) 108 % of control

From PubChem BioAssay AID250 (DTP/NCI, 2004)
